# Where a name gives a salt, the structure may show the parent alone. ± gives the standard deviation of the averaged measurements. Some of the results follow. Values are raw readings; no control value is given beside them.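 Across three biological replicates, HeLa cells were imaged for ribosome assembly using ENP1 staining (export block present or absent) or inducible tagged ribosomal protein reporters. Machine learning classified each cell's signal localization relative to DMSO controls. Hits exceeded the DMSO false-positive mean by five standard deviations and were then visually confirmed.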
# Test system: HeLa K (ENP1 immunofluorescence, +LMB)
# Assay: fraction of cells with nucleolar or nucleolar/nucleoplasmic ENP1 signal (MainHitrate); higher = more cells with nucleolar/nuclear readout signal (for ENP1 -LMB: less RNAPI inhibition; for +LMB ENP1 and RP reporters: stronger nuclear/nucleolar retention, i.e. ribosome biogenesis defect)
# Settings: concentration: 1 µM; treatment time: 6 h; ENP1 +LMB; leptomycin B: 20 nM, last 1.5 h
row,SMILES,fraction
1,N=C(N)N/N=C/c1c(Cl)cccc1Cl [Guanabenz acetate],0.0671 ± 0.087
2,CC(=O)[C@H]1CC[C@H]2[C@@H]3CCC4=CC(=O)CC[C@]4(C)[C@H]3CC[C@]12C [Progesterone (Prometrium)],0.0986 ± 0.078
3,Cc1onc(-c2ccccc2)c1C(=O)N[C@@H]1C(=O)N2[C@@H]1SC(C)(C)[C@@H]2C(=O)O [Oxacillin sodium monohydrate],0.121 ± 0.17
4,CCN(CC)C(=O)C1(c2ccccc2)CC1CN (centres undefined) [Milnacipran HCl],0.0501 ± 0.054
5,CC(=O)Nc1ccccc1 [Acetanilide (Antifebrin)],0.107 ± 0.16
6,O=NN(CCCl)C(=O)NC1CCCCC1 [Lomustine (CeeNU)],0.109 ± 0.15
7,Cc1cccc(Nc2ccncc2S(=O)(=O)NC(=O)NC(C)C)c1 [Torsemide (Demadex)],0.0608 ± 0.05
8,O=P(O)(O)C(O)(Cn1ccnc1)P(=O)(O)O [Zoledronic Acid (Zoledronate)],0.0707 ± 0.046
9,C[C@@H]1C/C=C/C=C/C=C/C=C/[C@H](O[C@@H]2O[C@H](C)[C@@H](O)[C@H](N)[C@@H]2O)C[C@@H]2O[C@](O)(C[C@@H](O)C[C@H]3O[C@@H]3/C=C/C(=O)O1)C[C@H](O)[C@H]2C(=O)O [Natamycin (Pimaricin)],0.0999 ± 0.093
10,CN(C)CCCN1c2ccccc2Sc2ccc(Cl)cc21 [Chlorpromazine (Sonazine)],0.17 ± 0.26
11,COc1cccc2c1C(=O)c1c(O)c3c(c(O)c1C2=O)C[C@@](O)(C(=O)CO)C[C@@H]3O[C@H]1C[C@H](N)[C@H](O)[C@H](C)O1 [Doxorubicin (Adriamycin)],0.0732 ± 0.12
12,Cc1cc(N)c2ccccc2[n+]1CCCCCCCCCC[n+]1c(C)cc(N)c2ccccc21 [Dequalinium chloride],0.102 ± 0.15
13,C[C@@H]1CC(=O)NN=C1c1ccc(NN=C(C#N)C#N)cc1 [Levosimendan],0.104 ± 0.15
14,CCN1CCN(C(=O)N[C@@H](C(=O)N[C@@H]2C(=O)N3C(C(=O)O)=C(CSc4nnnn4C)CS[C@H]23)c2ccc(O)cc2)C(=O)C1=O [Cefoperazone (Cefobid)],0.0689 ± 0.07
15,CCC(=O)O[C@]1(C(=O)CCl)[C@@H](C)C[C@H]2[C@@H]3C[C@H](F)C4=CC(=O)C=C[C@]4(C)[C@@]3(F)[C@@H](O)C[C@@]21C [Halobetasol Propionate],0.0817 ± 0.11
16,C[N+](C)(C)C[C@H](O)CC(=O)[O-] [L-carnitine (Levocarnitine)],0.155 ± 0.24
17,CCOC(=O)[C@H](CCc1ccccc1)N[C@@H](C)C(=O)N1Cc2ccccc2C[C@H]1C(=O)O [Quinapril HCl (Accupril)],0.0496 ± 0.062
18,N[C@H](C(=O)O)[C@H](O)c1ccc(O)c(O)c1 [Droxidopa (L-DOPS)],0.0944 ± 0.13
19,COCCCC/C(=N\OCCN)c1ccc(C(F)(F)F)cc1 [Fluvoxamine maleate],0.0699 ± 0.071
20,Clc1ccc(C(Cn2ccnc2)OCc2ccc(Sc3ccccc3)cc2)c(Cl)c1 (centres undefined) [Fenticonazole nitrate],0.139 ± 0.2

# In another format: entries from further up.
row | SMILES | fraction
19 | COCCCC/C(=N\OCCN)c1ccc(C(F)(F)F)cc1 [Fluvoxamine maleate] | 0.0699 ± 0.071
20 | Clc1ccc(C(Cn2ccnc2)OCc2ccc(Sc3ccccc3)cc2)c(Cl)c1 (centres undefined) [Fenticonazole nitrate] | 0.139 ± 0.2

# Additional structures

row,SMILES,fraction
1,CC(=O)[C@]1(O)Cc2c(O)c3c(c(O)c2[C@@H](O[C@H]2C[C@H](N)[C@H](O)[C@H](C)O2)C1)C(=O)c1ccccc1C3=O [Idarubicin HCl],0.0807 ± 0.13
2,CC(C(=O)O)c1ccc2c(c1)[nH]c1ccc(Cl)cc12 (centres undefined) [Carprofen],0.0805 ± 0.11
3,Nc1nc(=O)[nH]cc1F [Flucytosine (Ancobon)],0.0811 ± 0.038
4,C[C@@H](CN1CC(=O)NC(=O)C1)N1CC(=O)NC(=O)C1 [Dexrazoxane Hydrochloride],0.141 ± 0.16
5,CC1(C)S[C@@H]2[C@H](NC(=O)[C@H](N)c3ccc(O)cc3)C(=O)N2[C@H]1C(=O)O [Amoxicillin sodium (Amox)],0.105 ± 0.16
6,O=C(O)C[C@H](O)C[C@H](O)/C=C/c1c(C2CC2)nc2ccccc2c1-c1ccc(F)cc1 [Pitavastatin calcium (Livalo)],0.114 ± 0.14
7,CCC[C@H](NC(=O)[C@@H]1[C@H]2CCC[C@H]2CN1C(=O)[C@@H](NC(=O)[C@@H](NC(=O)c1cnccn1)C1CCCCC1)C(C)(C)C)C(=O)C(=O)NC1CC1 [Telaprevir (VX-950)],0.0904 ± 0.086
8,CC(=O)NS(=O)(=O)c1ccc(N)cc1 [sulfacetamide sodium],0.119 ± 0.17
9,CCN(CC)C(=O)/C(C#N)=C/c1cc(O)c(O)c([N+](=O)[O-])c1 [Entacapone],0.0754 ± 0.087
10,CN(C)CCC=C1c2ccccc2CCc2ccccc21 [Amitriptyline HCl],0.0649 ± 0.09
11,CC(C)Cc1ccc(C(C)C(=O)O)cc1 (centres undefined) [Ibuprofen Lysine (NeoProfen)],0.0775 ± 0.054
12,N[C@@H]1CONC1=O [D-Cycloserine],0.157 ± 0.23
13,OC[C@H]1OC(O)[C@H](O)[C@@H](O)[C@@H]1O (stereo partly drawn) [Dextrose (D-glucose)],0.137 ± 0.19
14,CO[C@H]1C[C@@H]2CC[C@@H](C)[C@@](O)(O2)C(=O)C(=O)N2CCCC[C@H]2C(=O)O[C@H]([C@H](C)C[C@@H]2CC[C@@H](O)[C@H](OC)C2)CC(=O)[C@H](C)/C=C(\C)[C@@H](O)[C@@H](OC)C(=O)[C@H](C)C[C@H](C)/C=C/C=C/C=C/1C [Rapamycin (Sirolimus)],0.165 ± 0.11
15,CC(C(=O)O)c1cccc(Oc2ccccc2)c1 (centres undefined) [Fenoprofen calcium hydrate],0.194 ± 0.31
16,CCN1CCN(c2cc3c(cc2F)c(=O)c(C(=O)O)cn3C2CC2)CC1 [Enrofloxacin],0.0643 ± 0.076
17,O=C(Oc1ccccc1C(=O)O)c1ccccc1O [Sasapyrine],0.0515 ± 0.063
18,N[C@@H]1CCCCN(c2c(F)cc3c(=O)c(C(=O)O)cn(C4CC4)c3c2Cl)C1 [Besifloxacin HCl (Besivance)],0.136 ± 0.18
19,Cc1ccc(O)c([C@H](CCN(C(C)C)C(C)C)c2ccccc2)c1 [Tolterodine tartrate (Detrol LA)],0.142 ± 0.23
